# Reference: the supplement of paper PMC8728848
# Some of the results follow.
# B1: SspB (Streptococcus gordonii), P16952 (protein)
# chain: MKNKKEVYGFRKSKVAKTLCGAVLGTALIAFADKAVFADEVTETTSTSTVEVATTGNPATNLPEAQGEMSQVAKESQAKAGSKESALPVEVSSADLDKAVADAKSAGVKVVQDETKDKGTATTATDNAQKQDEIKSDYAKQAEEIKTTTEAYKKEVAAHQAETDKINAENKAADDKYQKDLKSHQEEVEKINTANATAKAEYEAKLAQYQKDLATVKKANEDSQQDYQNKLSAYQTELARVQKANAEAKEAYEKAVKENTAKNEALKVENEAIKQRNETAKATYEAAMKQYEADLAAIKKANEDNDADYQAKLAAYQTELARVQKANAEAKEAYDKAVKENTAKNTAIQAENEAIKQRNETAKATYDAAVKKYEADLAAVKQANATNEADYQAKLAAYQTELARVQKANADAKATYEKAVEDNKAKNAAIKAENEEIKQRNAVAKTDYEAKLAKYEADLAKYKKEFAAYTAALAEAESKKKQDGYLSEPRSQSLNFKSEPNAIRTIDSSVHQYGQQELDALVKSWGISPTNPDRKKSRAYSYFNAINSNNTYAKLVLEKDKPVDVTYTGLKNSSFNGKKISKVVYTYTLKETGFNDGTKMTMFASSDPTVTAWYNDYFTSTNINVKVKFYDEEGQLMNLTGGLVNFSSLNRGNGSGAIDKDAIESVRNFNGRYIPISGSSIKIHENNSAYADSSNAEKSLGARWNTSEWDTTSSPNNWYGAIVGEITQSEISFNMASSKSGNIWFAFNSNINAIGVPTKPVAPTAPTQPMYETEKPLEPAPVAPSYENEPTPPVKTPDQPEPSKPEEPTYETEKPLEPAPVAPSYENEPTPPVKTPDQPEPSKPEEPNYETEKPLEPAPVAPSYENEPTPPVKIPDQPEPSKPEEPTYDPLPTPPLAPTPKQLPTPPVVPTVHFHYSSLLAQPQINKEIKNEDGVDIDRTLVAKQSIVKFELKTEALTAGRPKTTSFVLVDPLPTGYKFDLDATKAASTGFDTTYDEASHTVTFKATDETLATYNADLTKPVETLHPTVVGRVLNDGATYTNNFTLTVNDAYGIKSNVVRVTTPGKPNDPDNPNNNYIKPTKVNKNKEGLNIDGKEVLAGSTNYYELTWDLDQYKGDKSSKEAIQNGFYYVDDYPEEALDVRPDLVKVADEKGNQVSGVSVQQYDSLEAAPKKVQDLLKKANITVKGAFQLFSADNPEEFYKQYVATGTSLVITDPMTVKSEFGKTGGKYENKAYQIDFGNGYATEVVVNNVPKITPKKDVTVSLDPTSENLDGQTVQLYQTFNYRLIGGLIPQNHSEELEDYSFVDDYDQAGDQYTGNYKTFSSLNLTMKDGSVIKAGTDLTSQTTAETDATNGIVTVRFKEDFLQKISLDSPFQAETYLQMRRIAIGTFENTYVNTVNKVAYASNTVRTTTPIPRTPDKPTPIPTPKPKDPDKPETPKEPKVPSPKVEDPSAPIPVSVGKELTTLPKTGTNDATYMPYLGLAALVGFLGLGLAKRKED
# Key:
# Test in all cases: glycan array binding signal (z-score within array); higher = stronger binding
# Details in all cases: glycan notation: IUPAC condensed, linker removed
# [1] = biological target: Neu5Ac(a2-3)Gal(b1-3)GlcNAc(b1-3)Gal(b1-3)GlcNAc
# Summary of the method: (§1)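 The binding signal is a Z-score computed within each array. Data were drawn from 3228 arrays in the Consortium for Functional Glycomics database, restricted to those with a known protein sequence. Scores were averaged over arrays of the same protein sequence at different concentrations or buffers, and over linkers, and negative values can be taken as non-binding.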
# [2] = biological target: Neu5Ac(a2-3)Gal(b1-3)GlcNAc(b1-3)Gal(b1-4)GlcNAc
# Summary of the method: as §1
# [3] = biological target: Neu5Ac(a2-3)Gal(b1-3)GlcNAc(b1-3)GalNAc
# Summary of the method: as §1
# [4] = biological target: Neu5Ac(a2-3)Gal(b1-3)GlcNAc6S
# Summary of the method: as §1
# [5] = biological target: Neu5Ac(a2-3)Gal(b1-3)[Fuc(a1-4)]GlcNAc
# Summary of the method: as §1
# [6] = biological target: Neu5Ac(a2-3)Gal(b1-3)[Fuc(a1-4)]GlcNAc(b1-3)Gal(b1-3)[Fuc(a1-4)]GlcNAc
# Summary of the method: as §1
# [7] = biological target: Neu5Ac(a2-3)Gal(b1-3)[Fuc(a1-4)]GlcNAc(b1-3)Gal(b1-4)[Fuc(a1-3)]GlcNAc
# Summary of the method: as §1
# [8] = biological target: Neu5Ac(a2-3)Gal(b1-3)[Neu5Ac(a2-3)Gal(b1-4)]GlcNAc
# Summary of the method: as §1
# [9] = biological target: Neu5Ac(a2-3)Gal(b1-3)[Neu5Ac(a2-6)]GalNAc
# Summary of the method: as §1
# [10] = biological target: Neu5Ac(a2-3)Gal(b1-4)Glc
# Summary of the method: as §1
# [11] = biological target: Neu5Ac(a2-3)Gal(b1-4)GlcNAc
# Summary of the method: as §1
# [12] = biological target: Neu5Ac(a2-3)Gal(b1-4)GlcNAc(b1-2)Man(a1-3)[GlcNAc(b1-2)Man(b1-4)GlcNAc(b1-2)Man(a1-6)]Man(b1-4)GlcNAc(b1-4)GlcNAc
# Summary of the method: as §1
# [13] = biological target: Neu5Ac(a2-3)Gal(b1-4)GlcNAc(b1-2)Man(a1-3)[Neu5Ac(a2-6)Gal(b1-4)GlcNAc(b1-2)Man(a1-6)]Man(b1-4)GlcNAc(b1-4)GlcNAc
# Summary of the method: as §1
# [14] = biological target: Neu5Ac(a2-3)Gal(b1-4)GlcNAc(b1-3)Gal(b1-3)GlcNAc
# Summary of the method: as §1
# [15] = biological target: Neu5Ac(a2-3)Gal(b1-4)GlcNAc(b1-3)Gal(b1-4)GlcNAc
# Summary of the method: as §1
# [16] = biological target: Neu5Ac(a2-3)Gal(b1-4)GlcNAc(b1-3)Gal(b1-4)GlcNAc(b1-3)Gal(b1-4)GlcNAc
# Summary of the method: as §1
# [17] = biological target: Neu5Ac(a2-3)Gal(b1-4)GlcNAc(b1-3)Gal(b1-4)[Fuc(a1-3)]GlcNAc
# Summary of the method: as §1
# [18] = biological target: Neu5Ac(a2-3)Gal(b1-4)GlcNAc(b1-3)GalNAc
# Summary of the method: as §1
# [19] = biological target: Neu5Ac(a2-3)Gal(b1-4)GlcNAc(b1-6)[Gal(b1-3)]GalNAc
# Summary of the method: as §1
# [20] = biological target: Neu5Ac(a2-3)Gal(b1-4)GlcNAc(b1-6)[Neu5Ac(a2-3)Gal(b1-3)]GalNAc
# Summary of the method: as §1
# [21] = biological target: Neu5Ac(a2-3)Gal(b1-4)GlcNAc6S
# Summary of the method: as §1
# [22] = biological target: Neu5Ac(a2-3)Gal(b1-4)[Fuc(a1-3)]GlcNAc
# Summary of the method: as §1
# [23] = biological target: Neu5Ac(a2-3)Gal(b1-4)[Fuc(a1-3)]GlcNAc(b1-3)Gal
# Summary of the method: as §1
# [24] = biological target: Neu5Ac(a2-3)Gal(b1-4)[Fuc(a1-3)]GlcNAc(b1-3)Gal(b1-4)GlcNAc
# Summary of the method: as §1
# [25] = biological target: Neu5Ac(a2-3)Gal(b1-4)[Fuc(a1-3)]GlcNAc(b1-3)Gal(b1-4)[Fuc(a1-3)]GlcNAc(b1-3)Gal(b1-4)[Fuc(a1-3)]GlcNAc
# Summary of the method: as §1
# [26] = biological target: Neu5Ac(a2-3)Gal(b1-4)[Fuc(a1-3)]GlcNAc(b1-3)GalNAc
# Summary of the method: as §1
# [27] = biological target: Neu5Ac(a2-3)Gal(b1-4)[Fuc(a1-3)]GlcNAc(b1-6)[Gal(b1-3)]GalNAc
# Summary of the method: as §1
# [28] = biological target: Neu5Ac(a2-3)Gal(b1-4)[Fuc(a1-3)]GlcNAc(b1-6)[Neu5Ac(a2-3)Gal(b1-3)]GalNAc
# Summary of the method: as §1
# [29] = biological target: Neu5Ac(a2-3)Gal(b1-4)[Fuc(a1-3)]GlcNAc6S
# Summary of the method: as §1
# [30] = biological target: Neu5Ac(a2-3)Gal6S(b1-4)GlcNAc
# Summary of the method: as §1
# [31] = biological target: Neu5Ac(a2-3)Gal6S(b1-4)[Fuc(a1-3)]GlcNAc
# Summary of the method: as §1
# [32] = biological target: Neu5Ac(a2-3)GalNAc
# Summary of the method: as §1
# [33] = biological target: Neu5Ac(a2-3)GalNAc(b1-4)GlcNAc
# Summary of the method: as §1
# [34] = biological target: Neu5Ac(a2-3)[GalNAc(b1-4)]Gal(b1-4)Glc
# Summary of the method: as §1
# [35] = biological target: Neu5Ac(a2-3)[GalNAc(b1-4)]Gal(b1-4)GlcNAc
# Summary of the method: as §1
# [36] = biological target: Neu5Ac(a2-3)[GalNAc(b1-4)]Gal(b1-4)GlcNAc(b1-3)GalNAc
# Summary of the method: as §1
# [37] = biological target: Neu5Ac(a2-3)[Neu5Ac(a2-6)]GalNAc
# Summary of the method: as §1
# [38] = biological target: Neu5Ac(a2-6)Gal
# Summary of the method: as §1
# [39] = biological target: Neu5Ac(a2-6)Gal(b1-4)Glc
# Summary of the method: as §1
# [40] = biological target: Neu5Ac(a2-6)Gal(b1-4)GlcNAc
# Summary of the method: as §1
binder,measurement,setting,value
B1,glycan array binding signal (z-score),[1],-0.209
same,glycan array binding signal (z-score),[2],-0.057
same,glycan array binding signal (z-score),[3],0.045
same,glycan array binding signal (z-score),[4],-1.52
same,glycan array binding signal (z-score),[5],0.111
same,glycan array binding signal (z-score),[6],0.462
same,glycan array binding signal (z-score),[7],0.408
same,glycan array binding signal (z-score),[8],0.26
same,glycan array binding signal (z-score),[9],0.321
same,glycan array binding signal (z-score),[10],-0.317
same,glycan array binding signal (z-score),[11],-0.756
same,glycan array binding signal (z-score),[12],0.819
same,glycan array binding signal (z-score),[13],-0.312
same,glycan array binding signal (z-score),[14],1.9
same,glycan array binding signal (z-score),[15],0.053
same,glycan array binding signal (z-score),[16],-0.705
same,glycan array binding signal (z-score),[17],-1.85
same,glycan array binding signal (z-score),[18],-0.392
same,glycan array binding signal (z-score),[19],-0.427
same,glycan array binding signal (z-score),[20],-0.999
same,glycan array binding signal (z-score),[21],-0.199
same,glycan array binding signal (z-score),[22],0.119
same,glycan array binding signal (z-score),[23],-1.3
same,glycan array binding signal (z-score),[24],-0.997
same,glycan array binding signal (z-score),[25],0.022
same,glycan array binding signal (z-score),[26],1.45
same,glycan array binding signal (z-score),[27],0.83
same,glycan array binding signal (z-score),[28],-0.102
same,glycan array binding signal (z-score),[29],0.987
same,glycan array binding signal (z-score),[30],-1.41
same,glycan array binding signal (z-score),[31],-0.618
same,glycan array binding signal (z-score),[32],-0.801
same,glycan array binding signal (z-score),[33],-0.22
same,glycan array binding signal (z-score),[34],0.757
same,glycan array binding signal (z-score),[35],0.157
same,glycan array binding signal (z-score),[36],0.463
same,glycan array binding signal (z-score),[37],0.147
same,glycan array binding signal (z-score),[38],0.974
same,glycan array binding signal (z-score),[39],-1.2
same,glycan array binding signal (z-score),[40],0.259

# Two neighbouring entries out of the list so far:
binder,measurement,setting,value
B1,glycan array binding signal (z-score),[26],1.45
same,glycan array binding signal (z-score),[27],0.83
